Where a chain is given by its changes, count along the chain named. No constants are given. Whether binding was seen depends on the method and setting. Binding calls can cover weak binding; strength is not graded here. For some of these results: Sequences can lack the tags named with a protein.
Key:
[1] = biological target: T1, N-terminal truncated MOB1B (33-216) (mouse, UniProt Q8BPB0 33-216); test: AUC; sedimentation velocity, 20 °C, 19 μM protein, 20 mM Tris-HCl (pH 7.5), 0.1 M NaCl, scanned at 280 nm; both purified
T1 construct: MOB1B, mouse, residues 33-216; also called N-terminal 32-residue truncated form; N-truncated MOB1B; source: E. coli, purified (Glutathione Sepharose 4B, HRV 3C digestion, HiTrap Q gradient, Superdex 75pg); not shown: GST, N-terminal, cleaved
T1 sequence (looked up): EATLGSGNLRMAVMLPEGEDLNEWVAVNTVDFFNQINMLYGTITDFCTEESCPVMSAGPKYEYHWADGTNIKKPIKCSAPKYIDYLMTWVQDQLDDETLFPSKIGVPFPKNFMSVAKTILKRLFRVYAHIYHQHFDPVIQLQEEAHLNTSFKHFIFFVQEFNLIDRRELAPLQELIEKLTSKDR

[2] = biological target: T2, GST-MOB1B with the single phosphomimetic substitution of Thr12 (mouse) (UniProt Q8BPB0); test: pull-down; GST-MOB1B and LATS1 proteins (40 μM) mixed 1:1 in 20 mM Tris-HCl (pH 7.5), 0.3 M NaCl, 1 mM DTT, applied to Glutathione Sepharose 4B, washed at 4 °C, eluted with glutathione, SDS-PAGE with Coomassie blue, band intensities; both purified
T2 sequence: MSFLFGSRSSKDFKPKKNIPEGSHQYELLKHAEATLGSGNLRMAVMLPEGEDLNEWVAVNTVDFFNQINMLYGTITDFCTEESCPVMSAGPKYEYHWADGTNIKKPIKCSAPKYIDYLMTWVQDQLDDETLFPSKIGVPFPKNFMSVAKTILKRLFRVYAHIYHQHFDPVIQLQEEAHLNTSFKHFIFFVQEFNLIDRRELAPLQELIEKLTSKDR

[3] = biological target: T3, GST-MOB1B, N-terminal 32-residue truncated form (33-216) (mouse) (UniProt Q8BPB0); test: as above
T3 sequence: T1 sequence (looked up)

[4] = biological target: T4, GST-MOB1B, double-mutant T12D/T35D full-length form (mouse) (UniProt Q8BPB0); test: as above
T4 sequence: T2 sequence with T35D

[5] = biological target: T5, GST-MOB1B, wild-type full-length form (mouse) (UniProt Q8BPB0); test: as above
T5 sequence: T2 sequence with D12T

[6] = biological target: T6, GST-N-terminal truncated MOB1B, N-terminal 16-residue truncated form (mouse) (UniProt Q8BPB0); test: as above
T6 sequence: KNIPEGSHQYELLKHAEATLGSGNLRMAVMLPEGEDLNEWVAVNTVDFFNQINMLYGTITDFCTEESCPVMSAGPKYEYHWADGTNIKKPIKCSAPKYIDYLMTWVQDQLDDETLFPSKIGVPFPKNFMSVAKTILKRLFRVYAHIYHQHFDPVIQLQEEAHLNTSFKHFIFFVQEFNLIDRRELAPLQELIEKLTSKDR

[7] = biological target: T7, GST-N-terminal truncated MOB1B, N-terminal 21-residue truncated form (mouse) (UniProt Q8BPB0); test: as above
T7 sequence: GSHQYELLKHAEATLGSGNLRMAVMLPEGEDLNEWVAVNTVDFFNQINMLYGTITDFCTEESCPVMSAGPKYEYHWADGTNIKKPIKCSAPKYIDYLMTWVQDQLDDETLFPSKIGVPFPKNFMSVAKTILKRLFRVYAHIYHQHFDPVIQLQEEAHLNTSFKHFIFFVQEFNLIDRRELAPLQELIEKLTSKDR

binding [1]: binds
binding [2]: binds
binding [3]: binds
binding [4]: binds
binding [5]: binds weakly
binding [6]: binds
binding [7]: binds
Substance: NTR domain of LATS1 (limits not told for this experiment) (mouse) (domain or fragment)
